# PubChem BioAssay AID540276 (National Center for Advancing Translational Sciences (NCATS), 2011)
# Among all 300,000 compounds or so, about 5,400 (1.8%) were called active. Inconclusive results, whose numbers are uncertain, are shown with a selection of clear calls. The call rests on the fitted dose curve; tested in HEK293 cells. A potency beside an inconclusive call is a rough fit, not a confirmed value.
# Experiment: qHTS for inhibitors of binding or entry into cells for Marburg Virus
# Conditions: Marburg virus pseudotyped entry inhibition, cell reporter; series mostly up to 37.8 µM
# Potency means the concentration at half of the fitted maximal effect.
row,SMILES,Potency
1,COc1cc(C2c3c(-c4cc(C)ccc4O)n[nH]c3C(=O)N2CCCO)ccc1OCCC(C)C (configuration not stated),"inconclusive: 25.1 µM [inhibitor, single point]"
2,Cc1ccc(C)c(Nc2ncccc2C(=O)NCc2cccs2)c1,"inconclusive: 0.316 µM [activator, partial curve, poor fit]"
3,Nc1nc(CSCc2ccccc2)nc(N2CCOCC2)n1,"inconclusive: 3.16 µM [activator, single point]"
4,COc1ccc(CCNC(=O)c2ccc(OC)c(OC)c2)cc1OC,inactive
5,O=C(COC(=O)C1CCC1)Nc1ccccc1Sc1ccccc1,"inconclusive: 31.6 µM [activator, single point]"
6,CCc1ccc2nc(NC(=O)CCCc3cccs3)sc2c1,"inconclusive: 35.5 µM [activator, single point]"
7,COc1ccc2c(c1)CCCC2=O,inactive
8,Cc1ccc(S(=O)(=O)C(C)C(=O)c2ccc3c(c2)OCCO3)cc1 (configuration not stated),"inconclusive: 11.6 µM [activator, partial curve]"
9,CC(=O)c1c(C)nc2cc(Cl)ccc2c1N,"inconclusive: 0.891 µM [inhibitor, single point]"
10,CCN(CC)c1ccc(C=Nc2ccccc2)c(O)c1,"inconclusive: 35.5 µM [activator, single point]"
11,Cc1onc(-c2c(F)cccc2Cl)c1C(=O)OCC(=O)N1C(C)CCCC1C (configuration not stated),"inconclusive: 15.8 µM [inhibitor, partial curve, poor fit]"
12,COc1ccc(C)cc1S(=O)(=O)N1CCCC(C(=O)NCc2ccccn2)C1 (configuration not stated),"inconclusive: 1.26 µM [inhibitor, single point]"
13,CN(Cc1ccccc1)S(=O)(=O)c1ccc(NC(=O)C2CCCO2)cc1 (configuration not stated),inactive
14,NC(=O)c1ccsc1NC(=O)c1ccc2c(c1)CCCC2,"inconclusive: 13 µM [inhibitor, single point]"
15,Cc1cc(NC(=O)c2ccccc2F)on1,"inconclusive: 8.91 µM [activator, partial curve]"
16,Cc1cc(NC(=O)CSc2nc(=O)n3cc(Cl)ccc3n2)no1,inactive
17,CC(C)OC(=O)CSc1ncnc2c1cnn2-c1ccccc1,inactive
18,S=C(c1ccc(-c2ccc(Cl)cc2)o1)N1CCCCC1,"inconclusive: 3.66 µM [activator, single point]"
19,Cc1nn(-c2ccccc2)c(C)c1/C=N/n1c(-c2ccccc2Br)n[nH]c1=S,"inconclusive: 22.4 µM [inhibitor, single point]"
20,O=C(Nc1nc2cc3c(cc2s1)OCCO3)c1ccco1,active: 0.794 µM
21,COC(=O)c1ccc(NC(=O)Nc2ccc3c(c2)OCO3)cc1,"inconclusive: 35.5 µM [inhibitor, single point]"
22,COC(=O)c1cccc2c(C(=O)O)cc(-c3ccccc3)nc12,"inconclusive: 0.631 µM [activator, partial curve, poor fit]"
23,COc1ccc(C(c2c(C)[nH]n(-c3ccccc3)c2=O)c2c(C)[nH]n(-c3ccccc3)c2=O)cc1OC,inactive
24,COc1ccc(-c2oc(NC(C)=O)c(C#N)c2-c2ccc(OC)cc2)cc1,inactive

row,SMILES,Potency
1,CCNC(=O)NCCc1c[nH]c2ccc(Cl)cc12,"inconclusive: 4.11 µM [activator, full curve]"
2,CCSc1nsc(NC(=O)Nc2ccccc2Cl)n1,"inconclusive: 14.1 µM [inhibitor, single point]"
3,COc1ccc2[nH]c3c(c2c1)CN(C)CC3,inactive
4,Cc1cccc(-n2c(SCC(=O)N3CC(=O)Nc4ccccc43)nc3ccccc3c2=O)c1,inactive
5,S=C(Nc1ccccn1)NC1CCCCC1,inactive
6,COc1ccc(N2CCN(C(=O)c3cc4c(s3)-c3ccccc3OC4)CC2)cc1,inactive
7,Cc1cc(C)c2nc(N3CCCC(C(=O)NC4CCCC4)C3)sc2c1 (configuration not stated),inactive
8,Cc1cc(=O)[nH]c(-n2[nH]c3c(c2=O)CCCC3)n1,inactive
9,S=c1[nH]ccn1-c1cccc(Cl)c1,"inconclusive: 0.112 µM [activator, full curve, poor fit]"
10,COc1c2c(nc3ccccc13)OC(C(C)(O)CO)C2 (configuration not stated),"inconclusive: 0.0398 µM [activator, partial curve, poor fit]"
11,Cc1ccc(S(=O)(=O)CCC(=O)Nc2ccc3nc(C)sc3c2)cc1,inactive
12,Cc1ccc(NC(=O)C(c2ccccc2)N2CCN(CC(=O)NC3CC3)CC2)cc1 (configuration not stated),inactive
13,O=C(/C=C/N1CCOCC1)c1ccc(-c2ccccc2)cc1,"inconclusive: 32.6 µM [inhibitor, single point]"
14,O=c1[nH]cnc2sc(-c3ccccc3)cc12,"inconclusive: 2.06 µM [activator, full curve, poor fit]"
15,COc1ccc(C2SCCN2S(=O)(=O)c2ccccc2)cc1 (configuration not stated),"inconclusive: 2.82 µM [inhibitor, full curve, poor fit]"
16,O=C1/C(=C/c2cccnc2)CCc2c1[nH]c1ccccc21,"inconclusive: 14.1 µM [inhibitor, single point]"
17,CCOc1ccccc1NC(=O)CSc1ccc(-c2sc(C)nc2C)nn1,"inconclusive: 17.8 µM [inhibitor, single point]"
18,CN(CC(=O)Nc1c(F)cccc1F)Cc1cccs1,inactive
19,N#Cc1cc(O)c(-n2nnc3ccccc32)cc1C#N,inactive
20,CC1=NN(C(=O)c2ccncc2)C(=O)C1N=Nc1ccc2ccccc2c1 (configuration not stated),"inconclusive: 35.5 µM [inhibitor, single point]"
21,C/C(=N\OC(=O)c1ccccc1)c1cc(-c2ccc(Cl)cc2)no1,inactive
22,COC(=O)c1sc(NC(=O)/C=C/c2ccccc2Cl)nc1C,"inconclusive: 3.98 µM [inhibitor, single point]"
23,CCc1nn(Cc2cc(C)ccc2C)c(=O)c2cc3cc(C)ccc3n12,inactive
24,Cc1cc(C)n(-c2ccc(C(=O)Nc3ccc(C)c(S(=O)(=O)N(C)C)c3)cc2)n1,"inconclusive: 0.0891 µM [inhibitor, full curve, poor fit]"

row,SMILES,Potency
1,COc1cc(OC)cc(C(=O)NCC(=O)OCC(=O)Nc2ccc(C)c(S(=O)(=O)N3CCOCC3)c2)c1,inactive
2,CCCCS/C(N)=N/N=C/c1ccccc1O,"inconclusive: 23.1 µM [inhibitor, single point]"
3,CC(NC(=O)C(c1ccccc1)c1ccccc1)c1ccc(S(N)(=O)=O)cc1 (configuration not stated),"inconclusive: 35.5 µM [inhibitor, single point]"
4,O=P(c1ccccc1)(c1nc2ccccc2s1)N1CCOCC1 (configuration not stated),inactive
5,CCOc1ccc(S(=O)(=O)Nc2ccc(OC)nc2)cc1,"inconclusive: 11.2 µM [inhibitor, single point]"
6,Oc1ccc(F)cc1-c1cc(-c2ccc3c(c2)OCCO3)n[nH]1,"inconclusive: 17.8 µM [inhibitor, single point]"
7,CSc1cccc(NC(=O)c2ccc(CN3CCc4ccccc4C3)cc2)c1,"inconclusive: 11.2 µM [inhibitor, partial curve, poor fit]"
8,COc1cc2c(cc1OC)-c1c(OC)c(OC)cc3ccnc(c13)C2=O,"inconclusive: 5.17 µM [inhibitor, partial curve, poor fit]"
9,CN(C)c1ccc(-c2nc3ccccn3c2/N=C/c2ccc(Br)cc2)cc1,"inconclusive: 3.16 µM [inhibitor, full curve, poor fit]"
10,COc1ccc(NC(=O)CSc2cc(C)nc3c(-c4ccccc4)cnn23)cc1,"inconclusive: 10 µM [inhibitor, partial curve]"
11,COC(=O)c1nnn(-c2cccc(C)c2)c1C(=O)OC,inactive
12,COc1ccc(N2CC(C(=O)NCCc3ccc(Cl)cc3)CC2=O)c(OC)c1 (configuration not stated),"inconclusive: 20 µM [activator, partial curve, poor fit]"
13,COCC(=O)OCC(=O)Nc1ccc(Cl)cc1[N+](=O)[O-],"inconclusive: 3.16 µM [activator, partial curve, poor fit]"
14,COc1ccc(Cl)cc1-n1nnc(-c2nsc(NC(=O)c3ccccc3Cl)n2)c1C,inactive
15,COc1ccccc1NC(=O)c1ccc(N)cc1,inactive
16,C=C(C)c1cccc(C(C)(C)NC(=O)Nc2cccnc2)c1,"inconclusive: 11.2 µM [inhibitor, partial curve, poor fit]"
17,CCOc1ccc(NC(=O)c2ccccc2O)cc1,"inconclusive: 15.8 µM [inhibitor, single point]"
18,COc1ccccc1-n1c(CNC(=O)c2ccc(S(=O)(=O)N3CCCCC3)cc2)n[nH]c1=S,inactive
19,NS(=O)(=O)c1ccc(NC(=S)N2CCN(c3ccc(Cl)c(Cl)c3)CC2)cc1,"inconclusive: 10 µM [inhibitor, partial curve, poor fit]"
20,O=C(CCSc1ccc(Cl)c(Cl)c1)NC12CC3CC(CC(C3)C1)C2,"inconclusive: 18.3 µM [inhibitor, single point]"
21,COC(=O)CC=C[C@@H](C)[C@H](NC(=O)OCC(Cl)(Cl)Cl)c1ccc(-c2ccccc2)cc1,"inconclusive: 1.5 µM [inhibitor, partial curve, poor fit]"
22,COc1cccc(N2CCN(C(=O)c3ccc(CS(=O)c4ccc(C)cc4)o3)CC2)c1 (configuration not stated),"inconclusive: 6.31 µM [inhibitor, full curve, poor fit]"
23,CCOC(=O)C1(Cc2cccc(OC)c2)CCN(Cc2cccn2-c2ccccn2)CC1,"inconclusive: 6.31 µM [inhibitor, single point]"
24,Cc1ccc(C(=O)CCC(=O)OCC(=O)Nc2c(C)nn(-c3ccccc3)c2C)cc1,"inconclusive: 1.26 µM [activator, partial curve, poor fit]"

# Reprinted at random: four records from the list, in no set order.
row,SMILES,Potency
9,S=c1[nH]ccn1-c1cccc(Cl)c1,"inconclusive: 0.112 µM [activator, full curve, poor fit]"
10,COc1c2c(nc3ccccc13)OC(C(C)(O)CO)C2 (configuration not stated),"inconclusive: 0.0398 µM [activator, partial curve, poor fit]"
16,Cc1cc(NC(=O)CSc2nc(=O)n3cc(Cl)ccc3n2)no1,inactive
14,O=c1[nH]cnc2sc(-c3ccccc3)cc12,"inconclusive: 2.06 µM [activator, full curve, poor fit]"
